Reference: the supplement of paper PMC10849652
The list shows a part of the results.

By UniProt entry, the sequences of proteins in these tests, tags left out. Where a name states a change or a piece, a line headed by the entry shows the natural chain unless it says otherwise.
UniProt P08247, whole entry, looked up: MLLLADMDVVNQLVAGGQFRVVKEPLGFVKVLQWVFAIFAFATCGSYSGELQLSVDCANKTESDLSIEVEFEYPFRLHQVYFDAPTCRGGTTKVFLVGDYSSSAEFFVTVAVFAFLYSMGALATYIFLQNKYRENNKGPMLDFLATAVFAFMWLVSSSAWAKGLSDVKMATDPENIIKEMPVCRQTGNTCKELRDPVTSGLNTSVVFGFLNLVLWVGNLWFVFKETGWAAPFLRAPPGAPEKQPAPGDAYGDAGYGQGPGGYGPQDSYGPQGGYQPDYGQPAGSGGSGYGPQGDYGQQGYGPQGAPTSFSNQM
UniProt Q86Y82: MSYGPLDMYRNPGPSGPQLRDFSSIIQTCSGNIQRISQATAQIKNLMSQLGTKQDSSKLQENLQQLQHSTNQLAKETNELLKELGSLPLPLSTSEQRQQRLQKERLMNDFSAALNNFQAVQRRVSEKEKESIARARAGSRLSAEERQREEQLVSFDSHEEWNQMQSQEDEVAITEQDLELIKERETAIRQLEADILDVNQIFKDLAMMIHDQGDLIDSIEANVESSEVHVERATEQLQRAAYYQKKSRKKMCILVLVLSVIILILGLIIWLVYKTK
UniProt P16949: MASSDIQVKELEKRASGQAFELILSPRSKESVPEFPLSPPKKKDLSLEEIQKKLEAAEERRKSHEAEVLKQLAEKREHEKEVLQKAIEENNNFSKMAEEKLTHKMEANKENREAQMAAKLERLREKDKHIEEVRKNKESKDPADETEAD
UniProt Q12962, whole entry, looked up: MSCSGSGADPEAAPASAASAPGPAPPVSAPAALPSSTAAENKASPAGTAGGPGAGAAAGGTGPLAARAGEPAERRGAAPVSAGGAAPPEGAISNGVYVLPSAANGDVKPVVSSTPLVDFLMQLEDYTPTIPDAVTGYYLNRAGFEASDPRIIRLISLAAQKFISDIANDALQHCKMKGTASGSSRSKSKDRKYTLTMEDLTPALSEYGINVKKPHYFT
UniProt P55854, whole entry, looked up: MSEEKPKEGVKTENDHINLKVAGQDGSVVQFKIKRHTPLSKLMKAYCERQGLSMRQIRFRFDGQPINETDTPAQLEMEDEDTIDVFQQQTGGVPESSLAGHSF
UniProt Q16563: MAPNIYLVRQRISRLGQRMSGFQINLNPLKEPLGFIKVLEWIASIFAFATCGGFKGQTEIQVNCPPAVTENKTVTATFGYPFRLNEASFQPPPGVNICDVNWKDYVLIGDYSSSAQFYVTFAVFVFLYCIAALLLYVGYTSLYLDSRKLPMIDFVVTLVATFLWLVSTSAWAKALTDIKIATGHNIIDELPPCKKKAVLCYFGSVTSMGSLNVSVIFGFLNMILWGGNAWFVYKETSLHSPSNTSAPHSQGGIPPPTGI
UniProt Q4KMP7: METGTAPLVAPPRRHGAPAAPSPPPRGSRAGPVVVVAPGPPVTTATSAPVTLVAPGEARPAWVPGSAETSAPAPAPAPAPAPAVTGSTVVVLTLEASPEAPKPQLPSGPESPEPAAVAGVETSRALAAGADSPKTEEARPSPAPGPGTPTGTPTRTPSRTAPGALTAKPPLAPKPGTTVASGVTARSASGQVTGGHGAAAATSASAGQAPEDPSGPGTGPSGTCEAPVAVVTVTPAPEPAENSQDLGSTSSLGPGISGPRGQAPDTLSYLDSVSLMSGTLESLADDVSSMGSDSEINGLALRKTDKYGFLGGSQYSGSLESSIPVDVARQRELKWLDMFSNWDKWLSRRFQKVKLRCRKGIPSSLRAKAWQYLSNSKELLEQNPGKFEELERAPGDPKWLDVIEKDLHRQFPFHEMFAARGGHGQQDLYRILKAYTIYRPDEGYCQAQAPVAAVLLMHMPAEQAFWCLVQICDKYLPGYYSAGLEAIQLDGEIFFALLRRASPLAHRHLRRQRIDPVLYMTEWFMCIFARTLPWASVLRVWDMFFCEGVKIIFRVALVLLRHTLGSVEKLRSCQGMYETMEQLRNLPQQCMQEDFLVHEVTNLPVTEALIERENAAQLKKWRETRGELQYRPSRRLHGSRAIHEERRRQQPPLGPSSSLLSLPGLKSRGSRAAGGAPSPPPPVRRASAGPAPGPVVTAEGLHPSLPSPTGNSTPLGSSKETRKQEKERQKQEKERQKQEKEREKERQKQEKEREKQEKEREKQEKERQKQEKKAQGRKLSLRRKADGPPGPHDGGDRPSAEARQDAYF
UniProt O60499: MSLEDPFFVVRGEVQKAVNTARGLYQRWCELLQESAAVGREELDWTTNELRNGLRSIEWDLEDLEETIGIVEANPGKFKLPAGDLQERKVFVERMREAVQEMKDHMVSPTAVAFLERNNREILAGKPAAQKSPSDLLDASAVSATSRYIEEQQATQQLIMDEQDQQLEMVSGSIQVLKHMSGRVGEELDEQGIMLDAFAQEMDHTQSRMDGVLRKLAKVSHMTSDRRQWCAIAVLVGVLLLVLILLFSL
UniProt Q6NXT6: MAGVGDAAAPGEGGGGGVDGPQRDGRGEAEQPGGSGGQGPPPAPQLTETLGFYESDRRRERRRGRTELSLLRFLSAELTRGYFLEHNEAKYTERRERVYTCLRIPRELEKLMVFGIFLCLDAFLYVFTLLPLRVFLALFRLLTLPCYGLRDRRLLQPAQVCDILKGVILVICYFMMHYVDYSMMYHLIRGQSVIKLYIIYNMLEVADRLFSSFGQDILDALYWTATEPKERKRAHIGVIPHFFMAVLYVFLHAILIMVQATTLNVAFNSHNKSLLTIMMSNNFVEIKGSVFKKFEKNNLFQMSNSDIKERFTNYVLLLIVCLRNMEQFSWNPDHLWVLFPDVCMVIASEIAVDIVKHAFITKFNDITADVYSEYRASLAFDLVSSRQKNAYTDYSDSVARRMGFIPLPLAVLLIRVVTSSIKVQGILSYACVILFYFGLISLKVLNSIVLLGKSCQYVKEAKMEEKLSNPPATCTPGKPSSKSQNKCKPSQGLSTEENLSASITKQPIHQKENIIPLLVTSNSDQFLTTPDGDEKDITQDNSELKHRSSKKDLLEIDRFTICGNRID
UniProt Q9UNK0: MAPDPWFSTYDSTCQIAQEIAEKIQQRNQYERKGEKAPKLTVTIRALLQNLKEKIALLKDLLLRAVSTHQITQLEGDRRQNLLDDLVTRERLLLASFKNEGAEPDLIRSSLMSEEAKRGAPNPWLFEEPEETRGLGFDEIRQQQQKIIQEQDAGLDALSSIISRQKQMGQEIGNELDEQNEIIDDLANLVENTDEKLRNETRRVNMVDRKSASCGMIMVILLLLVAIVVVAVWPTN
UniProt Q96BW9: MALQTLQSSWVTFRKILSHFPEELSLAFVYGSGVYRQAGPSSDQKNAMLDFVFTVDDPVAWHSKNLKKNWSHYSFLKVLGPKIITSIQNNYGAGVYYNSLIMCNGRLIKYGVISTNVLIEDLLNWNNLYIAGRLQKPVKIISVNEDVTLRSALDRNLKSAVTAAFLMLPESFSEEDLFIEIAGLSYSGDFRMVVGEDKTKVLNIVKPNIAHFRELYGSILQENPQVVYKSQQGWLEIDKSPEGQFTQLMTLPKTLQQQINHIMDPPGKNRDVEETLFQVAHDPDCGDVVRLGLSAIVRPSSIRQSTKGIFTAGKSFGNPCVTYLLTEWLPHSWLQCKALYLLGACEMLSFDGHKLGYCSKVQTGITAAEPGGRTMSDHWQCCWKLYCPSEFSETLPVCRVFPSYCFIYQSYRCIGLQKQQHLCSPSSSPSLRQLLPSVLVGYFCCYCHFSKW
UniProt Q9P2R7: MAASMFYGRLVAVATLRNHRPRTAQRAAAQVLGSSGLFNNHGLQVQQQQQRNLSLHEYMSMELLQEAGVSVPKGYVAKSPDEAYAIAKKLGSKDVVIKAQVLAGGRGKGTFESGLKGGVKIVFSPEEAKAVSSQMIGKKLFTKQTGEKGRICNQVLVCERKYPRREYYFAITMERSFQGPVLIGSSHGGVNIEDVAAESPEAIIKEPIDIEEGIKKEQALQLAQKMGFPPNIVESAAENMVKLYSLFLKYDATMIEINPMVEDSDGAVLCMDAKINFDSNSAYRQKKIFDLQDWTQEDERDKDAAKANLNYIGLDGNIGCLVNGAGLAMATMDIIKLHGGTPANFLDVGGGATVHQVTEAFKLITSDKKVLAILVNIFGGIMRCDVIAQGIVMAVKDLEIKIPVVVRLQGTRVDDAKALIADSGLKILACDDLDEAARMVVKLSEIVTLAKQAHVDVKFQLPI
UniProt O60506: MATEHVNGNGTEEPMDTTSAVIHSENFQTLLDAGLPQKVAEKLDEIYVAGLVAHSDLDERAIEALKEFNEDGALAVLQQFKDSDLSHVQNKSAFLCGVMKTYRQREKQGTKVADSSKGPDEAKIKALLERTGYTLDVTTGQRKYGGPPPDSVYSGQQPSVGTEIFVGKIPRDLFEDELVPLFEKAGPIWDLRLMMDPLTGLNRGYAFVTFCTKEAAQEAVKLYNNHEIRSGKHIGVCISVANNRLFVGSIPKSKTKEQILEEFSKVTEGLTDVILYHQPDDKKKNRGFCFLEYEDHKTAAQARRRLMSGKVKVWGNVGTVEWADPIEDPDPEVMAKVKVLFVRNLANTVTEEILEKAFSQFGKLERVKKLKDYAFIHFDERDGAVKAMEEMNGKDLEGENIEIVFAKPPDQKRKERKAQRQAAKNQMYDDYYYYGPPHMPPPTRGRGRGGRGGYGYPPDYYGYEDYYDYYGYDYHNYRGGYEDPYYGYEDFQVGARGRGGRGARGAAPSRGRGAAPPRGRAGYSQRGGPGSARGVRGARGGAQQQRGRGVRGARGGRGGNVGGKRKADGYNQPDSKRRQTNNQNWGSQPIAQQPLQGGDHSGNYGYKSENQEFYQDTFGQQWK
UniProt P61956, whole entry, looked up: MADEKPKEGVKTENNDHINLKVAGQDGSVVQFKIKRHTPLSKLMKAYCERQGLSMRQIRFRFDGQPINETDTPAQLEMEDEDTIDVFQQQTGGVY
UniProt Q9NRP7: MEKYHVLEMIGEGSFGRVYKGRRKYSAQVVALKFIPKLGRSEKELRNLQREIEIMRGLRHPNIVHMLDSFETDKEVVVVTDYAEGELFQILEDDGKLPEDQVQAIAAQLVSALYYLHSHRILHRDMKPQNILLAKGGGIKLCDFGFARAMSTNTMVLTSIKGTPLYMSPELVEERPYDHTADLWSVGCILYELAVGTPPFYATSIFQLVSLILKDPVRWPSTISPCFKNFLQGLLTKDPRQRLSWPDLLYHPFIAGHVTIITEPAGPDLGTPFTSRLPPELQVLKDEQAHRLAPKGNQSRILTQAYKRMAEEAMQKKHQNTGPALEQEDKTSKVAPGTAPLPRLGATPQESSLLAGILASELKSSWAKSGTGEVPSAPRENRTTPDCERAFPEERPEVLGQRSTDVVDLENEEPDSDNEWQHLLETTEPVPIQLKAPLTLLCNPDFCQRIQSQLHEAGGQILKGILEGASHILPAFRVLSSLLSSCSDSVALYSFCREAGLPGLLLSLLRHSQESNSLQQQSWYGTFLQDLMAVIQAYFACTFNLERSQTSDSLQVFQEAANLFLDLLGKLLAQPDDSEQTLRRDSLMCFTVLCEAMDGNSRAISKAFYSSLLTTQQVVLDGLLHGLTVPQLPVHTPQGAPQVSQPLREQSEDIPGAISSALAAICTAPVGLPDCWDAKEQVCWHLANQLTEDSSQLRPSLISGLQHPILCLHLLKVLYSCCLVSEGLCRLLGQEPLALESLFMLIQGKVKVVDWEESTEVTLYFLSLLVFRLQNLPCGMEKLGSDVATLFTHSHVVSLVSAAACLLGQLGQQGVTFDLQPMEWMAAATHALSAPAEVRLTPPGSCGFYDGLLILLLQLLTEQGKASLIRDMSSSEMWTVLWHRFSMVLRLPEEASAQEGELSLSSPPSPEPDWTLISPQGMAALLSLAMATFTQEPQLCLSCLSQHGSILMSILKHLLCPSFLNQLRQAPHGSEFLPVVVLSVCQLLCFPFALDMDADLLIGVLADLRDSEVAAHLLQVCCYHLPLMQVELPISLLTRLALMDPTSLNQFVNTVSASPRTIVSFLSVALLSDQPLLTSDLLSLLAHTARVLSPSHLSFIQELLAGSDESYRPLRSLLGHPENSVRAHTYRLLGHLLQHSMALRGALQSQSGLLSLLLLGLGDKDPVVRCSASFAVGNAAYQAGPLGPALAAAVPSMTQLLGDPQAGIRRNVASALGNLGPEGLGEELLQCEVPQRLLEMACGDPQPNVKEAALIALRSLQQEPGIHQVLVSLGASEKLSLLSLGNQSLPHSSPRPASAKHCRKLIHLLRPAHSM
UniProt O95926: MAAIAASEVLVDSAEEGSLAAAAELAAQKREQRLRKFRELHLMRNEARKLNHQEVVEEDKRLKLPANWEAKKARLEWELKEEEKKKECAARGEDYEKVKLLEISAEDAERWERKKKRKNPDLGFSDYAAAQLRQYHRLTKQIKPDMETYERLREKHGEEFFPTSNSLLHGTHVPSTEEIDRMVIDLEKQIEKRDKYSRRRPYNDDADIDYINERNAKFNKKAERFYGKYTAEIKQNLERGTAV
UniProt P37802: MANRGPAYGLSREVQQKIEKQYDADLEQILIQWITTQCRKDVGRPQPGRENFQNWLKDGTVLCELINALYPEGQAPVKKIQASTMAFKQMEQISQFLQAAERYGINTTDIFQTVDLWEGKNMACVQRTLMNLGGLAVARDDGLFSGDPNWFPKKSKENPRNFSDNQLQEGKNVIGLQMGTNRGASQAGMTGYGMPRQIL

Tests used:
Experiment in all cases: log2 fold change, soluble protein after heating vs DMSO (PISA); higher = thermal stabilisation; K562 cells, 10 uM, 30 min; active = over 0.2 and 3.5 SD of the protein, either way, in both replicates (recomputed)
bafetinib = compound: Cc1ccc(NC(=O)c2ccc(CN3CC[C@H](N(C)C)C3)c(C(F)(F)F)c2)cc1Nc1nccc(-c2cncnc2)n1 [bafetinib]
In short: (§1)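 Soluble protein was quantified by TMTpro 16plex LC-MS/MS after channel sums were equalised. It was obtained as the supernatant after 21,000xg for 90 min from pooled aliquots of K562 cells (2×10^6 cells/mL, 10 μM compound, 30 min) heated for 3 min across 48°C-58°C and extracted in PBS with 0.5% NP-40 at 4°C. Thermal stability values are relative to control samples and come from duplicates. They are given as log2 fold changes.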

[1] = compound: Cc1cccc(CC(=O)N2CCc3c2ccc(-c2cn(C)c4ncnc(N)c24)c3F)n1
In short: as §1

nilotinib = compound: Cc1cn(-c2cc(NC(=O)c3ccc(C)c(Nc4nccc(-c5cccnc5)n4)c3)cc(C(F)(F)F)c2)cn1 [nilotinib]
In short: as §1

[2] = compound: Cc1nc(Nc2n[nH]c3c2CN(C(=O)N[C@H](CN(C)C)c2ccccc2)C3(C)C)c2sccc2n1
In short: as §1

dasatinib = compound: Cc1nc(Nc2ncc(C(=O)Nc3c(C)cccc3Cl)s2)cc(N2CCN(CCO)CC2)n1 [dasatinib]
In short: as §1

[3] = compound: Cc1ncc(-c2ccnc(Nc3ccc(S(C)(=O)=O)cc3)n2)n1C(C)C
In short: as §1

[4] = compound: Cn1cc(-c2ccc3c(c2)CCN3C(=O)Cc2cccc(C(F)(F)F)c2)c2c(N)ncnc21
In short: as §1

[5] = compound: Cn1cc(-c2ccc3nnc(C(F)(F)c4ccc5ncccc5c4)n3n2)cn1
In short: as §1

tipifarnib = compound: Cn1cncc1[C@@](N)(c1ccc(Cl)cc1)c1ccc2c(c1)c(-c1cccc(Cl)c1)cc(=O)n2C [tipifarnib]
In short: as §1

mubritinib = compound: FC(F)(F)c1ccc(/C=C/c2nc(COc3ccc(CCCCn4ccnn4)cc3)co2)cc1 [mubritinib]
In short: as §1

Target	log2 fold change (bafetinib)	log2 fold change [1]	log2 fold change (nilotinib)	log2 fold change [2]	log2 fold change (dasatinib)	log2 fold change [3]	log2 fold change [4]	log2 fold change [5]	log2 fold change (tipifarnib)	log2 fold change (mubritinib)
SYP (UniProt P08247)	inactive: -0.041	inactive: 0	inactive: -0.053	inactive: 0.016	inactive: 0.019	inactive: 0.027	inactive: 0.05	inactive: 0.023	inactive: 0.048	inactive: 0.127
TAB1 (UniProt Q15750)	inactive: -0.001	inactive: 0.039	inactive: -0.171	inactive: -0.05	inactive: -0.182	inactive: 0.124	inactive: -0.011	inactive: 0.052	inactive: -0.117	inactive: 0.082
TARS2 (UniProt Q9BW92)	inactive: -0.081	inactive: 0.114	inactive: -0.094	inactive: -0.003	inactive: -0.055	inactive: 0	inactive: 0.084	inactive: 0.022	inactive: -0.119	inactive: 0.013
SUN2 (UniProt Q9UH99)	inactive: -0.04	inactive: 0.016	inactive: -0.007	inactive: -0.036	inactive: 0.004	inactive: -0.071	inactive: -0.052	inactive: -0.008	inactive: 0.013	inactive: -0.064
STX12 (UniProt Q86Y82)	inactive: -0.056	inactive: -0.022	inactive: 0.015	inactive: -0.036	inactive: 0.059	inactive: -0.003	inactive: 0.02	inactive: 0.044	inactive: -0.025	inactive: 0.018
STMN1 (UniProt P16949)	inactive: 0.005	inactive: 0.008	inactive: 0.008	inactive: -0.007	inactive: -0.001	inactive: 0.022	inactive: 0.03	inactive: 0.004	inactive: -0.034	inactive: 0.013
SUCLG1 (UniProt P53597)	inactive: -0.065	inactive: -0.01	inactive: -0.077	inactive: 0.029	inactive: -0.025	inactive: -0.008	inactive: 0.027	inactive: 0.078	inactive: -0.008	active: -0.273
TAF10 (UniProt Q12962)	inactive: 0.009	inactive: -0.033	inactive: 0	inactive: 0.05	inactive: 0.062	inactive: -0.037	inactive: 0.031	inactive: 0.015	inactive: -0.023	inactive: 0.009
SUMO3 isoform 2 (UniProt P55854)	inactive: -0.048	inactive: -0.12	inactive: 0.056	inactive: -0.022	inactive: 0.17	inactive: -0.02	inactive: -0.025	inactive: -0.061	inactive: 0.022	inactive: 0.04
SYPL1 (UniProt Q16563)	inactive: -0.045	inactive: 0.03	inactive: 0.011	inactive: 0.024	inactive: 0.035	inactive: -0.013	inactive: 0.059	inactive: -0.025	inactive: 0.015	inactive: 0.038
SULT1A3 isoform 3 (UniProt P0DMM9)	inactive: -0.149	inactive: 0.134	inactive: -0.014	inactive: 0.036	inactive: -0.132	inactive: 0.025	inactive: 0.237	inactive: 0.321	inactive: 0.016	inactive: -0.004
TBC1D10B (UniProt Q4KMP7)	inactive: -0.01	inactive: 0.022	inactive: 0.013	inactive: -0.09	inactive: -0.064	inactive: -0.149	inactive: 0.07	inactive: 0	inactive: 0.039	inactive: 0.013
STX10 (UniProt O60499)	inactive: -0.119	inactive: -0.042	inactive: -0.007	inactive: -0.036	inactive: -0.018	inactive: 0.033	inactive: -0.004	inactive: 0.073	inactive: -0.058	inactive: 0.123
TAPT1 (UniProt Q6NXT6)	inactive: -0.038	inactive: -0.044	inactive: 0.004	inactive: -0.012	inactive: 0.022	inactive: -0.031	inactive: 0.014	inactive: 0.067	inactive: 0.024	inactive: 0.04
STK38 (UniProt Q15208)	inactive: 0.054	inactive: 0	inactive: -0.105	active: -0.343	inactive: -0.136	inactive: 0.009	inactive: 0.035	inactive: 0.008	inactive: -0.079	inactive: -0.083
STX8 (UniProt Q9UNK0)	inactive: -0.002	inactive: 0.036	inactive: 0.033	inactive: 0.028	inactive: 0.055	inactive: -0.02	inactive: -0.034	inactive: -0.037	inactive: 0.042	inactive: 0.078
TAMM41 isoform 3 (UniProt Q96BW9)	active: -0.278	inactive: -0.041	inactive: -0.112	inactive: -0.005	inactive: -0.108	inactive: 0.026	inactive: 0.037	inactive: 0.028	inactive: -0.043	inactive: -0.044
SUCLA2 (UniProt Q9P2R7)	inactive: 0	inactive: -0.065	inactive: -0.098	inactive: 0.057	inactive: -0.149	inactive: -0.04	inactive: 0.005	inactive: 0.038	inactive: -0.01	active: -0.697
SYNE1 (UniProt Q8NF91)	inactive: -0.051	inactive: 0.008	inactive: 0.021	inactive: -0.281	inactive: -0.074	inactive: -0.074	inactive: 0.079	inactive: -0.098	–	inactive: 0.182
SYNCRIP isoform 3 (UniProt O60506)	inactive: 0.087	inactive: 0.01	inactive: -0.025	inactive: 0.009	inactive: 0.098	inactive: -0.025	inactive: -0.103	inactive: 0.05	inactive: 0.065	inactive: -0.089
SUMO2 (UniProt P61956)	inactive: -0.127	inactive: -0.023	inactive: 0.127	inactive: -0.027	inactive: 0.064	inactive: 0.004	inactive: -0.139	inactive: -0.039	inactive: 0.038	inactive: 0.07
TAPBP isoform 3 (UniProt O15533)	inactive: 0.086	inactive: -0.078	inactive: 0	inactive: -0.002	–	inactive: -0.054	inactive: -0.063	inactive: 0.104	inactive: -0.081	inactive: -0.107
STK36 (UniProt Q9NRP7)	inactive: -0.122	inactive: -0.065	inactive: 0.095	inactive: -0.012	inactive: -0.293	inactive: 0.042	–	inactive: -0.02	inactive: -0.12	inactive: 0.269
TACO1 (UniProt Q9BSH4)	inactive: 0.131	inactive: -0.116	inactive: 0.031	inactive: 0.108	inactive: -0.145	inactive: 0.031	inactive: 0.106	inactive: -0.03	inactive: -0.163	inactive: -0.137
SYNJ2 (UniProt O15056)	inactive: -0.201	inactive: 0.003	inactive: -0.159	inactive: -0.298	inactive: -0.188	inactive: 0.192	–	inactive: -0.03	–	inactive: 0.315
SYMPK (UniProt Q92797)	inactive: -0.027	inactive: 0.036	inactive: -0.192	inactive: -0.001	inactive: -0.156	inactive: 0.037	inactive: -0.017	inactive: -0.043	inactive: -0.152	inactive: 0.015
SYF2 (UniProt O95926)	inactive: -0.198	inactive: 0.021	inactive: -0.017	inactive: 0.25	inactive: 0.119	inactive: 0.308	inactive: -0.193	inactive: -0.021	inactive: 0.027	inactive: -0.002
TAGLN2 isoform 2 (UniProt P37802)	inactive: -0.027	inactive: 0.034	inactive: 0.015	inactive: -0.052	inactive: -0.031	inactive: 0.008	inactive: 0.054	inactive: 0	inactive: -0.038	inactive: 0.04

Pulled one by one from the list above (2):
Target	log2 fold change (bafetinib)	log2 fold change [1]	log2 fold change (nilotinib)	log2 fold change [2]	log2 fold change (dasatinib)	log2 fold change [3]	log2 fold change [4]	log2 fold change [5]	log2 fold change (tipifarnib)	log2 fold change (mubritinib)
TACO1 (UniProt Q9BSH4)	inactive: 0.131	inactive: -0.116	inactive: 0.031	inactive: 0.108	inactive: -0.145	inactive: 0.031	inactive: 0.106	inactive: -0.03	inactive: -0.163	inactive: -0.137
SUMO2 (UniProt P61956)	inactive: -0.127	inactive: -0.023	inactive: 0.127	inactive: -0.027	inactive: 0.064	inactive: 0.004	inactive: -0.139	inactive: -0.039	inactive: 0.038	inactive: 0.07
